# Primary screen of a compound library

Source: ChEMBL document CHEMBL3988442, “University of Dundee, Small-Polar-MMV Screening Library” (2021).

Mtb cholesterol medium: 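Growth of Mycobacterium tuberculosis over 4 days (cholesterol / DPPC medium with tyloxapol); the read-out is not stated. Compounds at 50 µM. Higher reads as more growth inhibition (inferred: compounds with an IC50 in retests scored well above the rest). Size under these conditions: about 69,000 compounds, about 370 of them at 50% or above in at least one test.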
Mtb glucose medium: 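Whole-cell growth test on Mycobacterium tuberculosis, read after 3 days in glucose-containing 7H9 medium; the read-out is not stated. Compounds at 50 µM. Higher reads as more growth inhibition (inferred: compounds with an IC50 in retests scored well above the rest). About 69,000 compounds were tested under these conditions; 1.1% (about 760) showed 50% or more at least once.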

Values are the deposited “Percent Effect”, in %.
How 0% and 100% were set is not recorded. Most values in the screen are low, and negative values occur.
Compounds were drawn at random from those tested, without regard to their results.
Two or more numbers in one place are separate tests of the same structure; such repeats can differ widely.

| # | SMILES | Mtb cholesterol medium | Mtb glucose medium |
|---|---|---|---|
| 1 | `CN(C)c1ccc(CC(=O)N2CCOCC(O)C2)cc1` (stereo not given) | -13.69% | -26% |
| 2 | `O=C(NCc1cn2cccnc2n1)C1CC(=O)N(Cc2cccnc2)C1` (stereo not given) | -9.347% | -46.74% & -5.056% |
| 3 | `O=C(O)C(F)(F)F.[H][C@@]12CCN(CC3CCOCC3)[C@@]1([H])CCN2C(=O)c1cccc(F)c1` | -11.58% & -22.13% | -22.54% |
| 4 | `CC(O)CCN(C)S(=O)(=O)Cc1ccc(Br)cc1` (stereo not given) | -5.537% | -24.71% & 3.196% |
| 5 | `COc1ncccc1-c1cc(C(=O)NC2CC2)ccn1` | -4.188% | -3.678% & 10.53% |
| 6 | `CN(C)C(=O)c1cnc2n1CCN(Cc1ccncc1)C2` | -13.71% & -21.64% | -30.93% |
| 7 | `O=C(O)C(F)(F)F.O=C(O)C(F)(F)F.c1cc(CN2Cc3nccn3CC(Cn3cncn3)C2)ccn1` (stereo not given) | 6.074% | 17.91% |
| 8 | `CCS(=O)(=O)N1CCC(NCC2CNc3cc(C)nn3C2)CC1` (stereo not given) | 12.53% | 5.796% & -59.8% |
| 9 | `CC(C)(C)OC(=O)N1CCN(S(C)(=O)=O)C2(CCCCC2)C1` | -17.64% | 0.3938% |
| 10 | `c1ncn(CC2CCCCN2Cc2csc(C3CCCC3)n2)n1` (stereo not given) | 3.607% | 26.01% |
| 11 | `c1coc(CN2CCO[C@@]3(CCC[C@@H]3COCc3nccs3)C2)c1` | 10.29% & 9.349% | -21.45% |
| 12 | `Cc1nc2[nH]cnc(NCCN3CCCC3)c-2n1` | -21.42% | 28.17% |
| 13 | `CCc1nc(CC(=O)N2CCC(C(=O)N(CC)CC)CC2)cs1` | -4.909% | 0.9944% |
| 14 | `c1cnc(-c2nc(CNCCn3cccn3)cs2)nc1` | -1.295% | -27.38% |
| 15 | `CCN(C(=O)CN1CCCC1c1ccc(F)cc1)c1ccccc1C` (stereo not given) | 4.393% | 41.36% |
| 16 | `CCc1noc(C(C)N2CCN(CCc3ccncc3)CC2)n1` (stereo not given) | -8.756% | 7.278% & 18.7% |
| 17 | `O=C(O)C(F)(F)F.O=C(O)C(F)(F)F.[H][C@@]12COC[C@]1([H])[C@@H](OCCN(C)C)CN2Cc1ccc(C)o1` | -5.584% | -25.77% |
| 18 | `O=C(O)C(F)(F)F.O=C(O)C(F)(F)F.[H][C@]12CO[C@@H](CN(C)C)[C@@]1([H])CCN(Cc1ccc(C)o1)C2` | 2.328% | 1.375% |
| 19 | `[H][C@]12CC[C@]([H])(CN(Cc3c(C)noc3C)C1)N(Cc1cc(F)cc(F)c1)C2` | -1.758% | 28.46% |
| 20 | `CCCc1n[nH]c(C2CN(C(=O)CCn3ccccc3=O)CCO2)n1` (stereo not given) | 8.75% | -27.25% |
| 21 | `O=C(NC1CC1)c1cc(NC(=O)N2CCCC(O)C2)ccc1Cl` (stereo not given) | -14.37% | -23.08% |
| 22 | `Cc1cccc(CCC(=O)N2CCOCC2c2c(C)n[nH]c2C)c1` (stereo not given) | -4.007% | -8.975% & -8.28% |
| 23 | `N[C@H]1CC[C@@H](Nc2nccc(CCC(F)(F)F)n2)CC1` | 17.9% | 28.02% |
| 24 | `Cc1nccn1[C@@H]1CC[C@@H](NC(=O)Cn2c(C)nc3ccccc32)[C@H]1O` | -6.884% & 2.483% | -14.52% |
| 25 | `[H][C@@]12C[C@@H](C(=O)NCc3ccco3)CN(c3ncc(F)cn3)[C@]1([H])CCO2` | 1.503% | 0.1069% |
| 26 | `Cc1ccc(CN(CCN(C)C)Cc2nc3ccccc3[nH]2)s1` | 14.95% | 13.17% |
| 27 | `CCn1cc(S(=O)(=O)N2CCCC3(CC=CNC3=O)C2)c(C)n1` (stereo not given) | -2.892% | -8.643% |
| 28 | `[H][C@]12CN(Cc3cccnc3)C(=O)[C@@]1([H])CN(C1CCOCC1)C2` | -3.591% & -3.171% | -3.692% & 8.55% |
| 29 | `CNC(=O)c1sc(C(NC(=O)c2ccccc2)C2CC2)nc1C` (stereo not given) | -12.67% | -28.34% & 3.017% |
| 30 | `COCc1ccccc1C(=O)N1CCCC(c2cc(C)[nH]n2)C1` (stereo not given) | -57.65% | -16.85% |
| 31 | `Cc1n[nH]c(C2CN(C(=O)CCc3ccco3)CCO2)n1` (stereo not given) | -40.73% | -12.47% & -2.663% |
| 32 | `Oc1cccc(CNC2CCN(CCc3ccncc3)CC2)c1` | -1.888% | -5.581% |
| 33 | `CC(C)CNC(=O)C1(Cc2ccccc2-c2ccccc2)CCNC1` (stereo not given) | 6.077% | 19.87% |
| 34 | `N#Cc1c(F)cccc1NCCCOCC1CCOCC1` | 21.14% | 36.83% |
| 35 | `O=S(=O)(c1cc(F)cc(F)c1)N1CCC(Oc2ccc(Cl)cn2)CC1` | 10.65% | 18.56% & 8.747% |
| 36 | `O=C(O)C(F)(F)F.[H][C@@]12CCN(Cc3nccs3)[C@]1([H])CC[C@@H](C(=O)Nc1cnccn1)O2` | 3.606% | 6.33% |
| 37 | `NC(=O)c1c(-c2ccc(Cl)cc2Cl)csc1NC(=O)CCCC(=O)O` | 14.16% | 7.439% |
| 38 | `COc1cccc(CCC2CCCN(Cc3ncc[nH]3)C2)c1` (stereo not given) | -14.75% | -11.79% |
| 39 | `Cc1cc(N(C)C)cc(C2CCN(S(=O)(=O)c3cccnc3)C2)n1` (stereo not given) | -6.406% & -0.3648% | -25.32% |
| 40 | `CN(Cc1cccc(Cl)c1)C(=O)Cn1nc(-c2ccc(F)cc2)oc1=O` | -4.656% | -7.222% |
| 41 | `COc1cc(OC)c(CNC(=O)NCC(=O)N(C)C)c(OC)c1` | 12.1% | -6.841% |
| 42 | `[H][C@]12CN(c3cnccn3)C[C@@]1(C(=O)O)CN(C1CCOCC1)C2` | -3.512% | 21.27% |
| 43 | `O=C(Nc1nc2c(s1)CN(S(=O)(=O)C1CC1)CC2)c1ccc(=O)[nH]c1` | -23% | -20.74% |
| 44 | `CCOCC1CN(Cc2ccc3c(c2)OCO3)Cc2ncn(C)c21` (stereo not given) | 2.932% | 15.14% |
| 45 | `CN1C[C@@H](C(=O)NC(C)(C)C)[C@@]2(COc3ccc(F)cc3C2=O)C1` | -4.115% & -5.456% | 4% |
| 46 | `COC(=O)C1CN(CC(=O)Nc2ccccc2Cl)c2ccccc21` (stereo not given) | -5.338% & -23.21% | -35.95% |
| 47 | `C[C@@H]1CN(CCc2ccccc2)C[C@]12CCN(CC(=O)N(C)C)C2=O.O=C(O)C(F)(F)F` | 0.6144% | 5.411% |
| 48 | `Cc1ccnc(C2CCN(c3ccnc(C)n3)C2)n1` (stereo not given) | 0.3189% & 4.517% | -12.09% |
| 49 | `CCOc1ccc(CN2CCN(C(=O)c3cc(C4CC4)[nH]n3)CC2)cc1` | 2.324% | -4.047% & 0.594% |
| 50 | `Cc1cc(C(C)C(=O)N2CCCN(Cc3cscn3)CC2)c(C)o1` (stereo not given) | -18.52% | -31.21% |
| 51 | `CCOCCCNC(=O)c1cn(CC)nc1C` | -6.693% | 8.262% |
| 52 | `Cc1ccc(OC2CCN(C(=O)C(C)Cn3cccn3)CC2)cc1` (stereo not given) | 4.422% & 11.58% | 21.46% & 19.26% |
| 53 | `CNC(=O)NCC(=O)Nc1ccccc1N1CCc2ccccc21` | -1.49% | -0.8965% & 12.63% |
| 54 | `NC(=O)CN1CCC(NC(=O)Nc2nccs2)CC1` | 3.927% | -32.21% |
| 55 | `Cc1cc(N2CCN(C(=O)c3cn(C)c4ccccc34)CC2)nc(C)n1` | -16.38% | 11.74% |
| 56 | `O=C(CCn1c(C(F)(F)F)cc2cccnc21)N1CCC(O)CC1` | -11.8% | 3.222% |
| 57 | `[H][C@@]12CN(Cc3cccs3)C[C@]1([H])CN(C(=O)c1cnc(C)cn1)C2` | 18.63% | 7.107% |
| 58 | `CC(=O)N1CCC(=O)N(C2CCCC2)Cc2ccccc21` | -13.4% | -9.883% |
| 59 | `CC(C)C(=O)NC1COC2(CCN(Cc3cccnc3)CC2)C1.O=C(O)C(F)(F)F.O=C(O)C(F)(F)F` (stereo not given) | 0.9357% | 15.34% |
| 60 | `N#Cc1ccc2c(c1)CN(C(=O)C1CC=CC1)C2c1cnco1` (stereo not given) | 9.734% | 6.282% & -3.256% |
| 61 | `Cc1nsc(N2CCN(C(=O)Nc3cccc(C#N)c3)CC2)n1` | -4.066% | -0.4242% |
| 62 | `O=C(C(c1ccccc1)S(=O)(=O)c1ccccc1)N1CCCCC1` (stereo not given) | 20.04% | -3.403% & 7.8% |
| 63 | `COCCC(=O)N1C[C@H](C(C)C)[C@@H](N(C)C)C1` | -10.47% | 0.1455% & -5.495% |
| 64 | `Cc1ccc(-n2ncc(C(=O)N(C)C3CCN(C)CC3)c2N)cc1C` | -18.49% | -36.73% |
| 65 | `Cc1ccc(CNC(=O)c2oc3ccccc3c2CN(C)C)n1C` | -32.38% & 0.5706% | 18.32% |
| 66 | `CC(C)(N)CN1CCC(c2nnc(CN3CCCC3)n2C2CC2)CC1` | 1.56% | 6.66% |
| 67 | `O=C(CCc1ccccc1)N1CCN(C(=O)c2ccc[nH]2)CC1` | -0.7384% & -14.84% | -21.04% |
| 68 | `Cc1noc(C)c1CN1CCc2nn(C(C)C)c(=O)cc2C1` | -16.05% | -12.44% |

The first 7 entries again:

SMILES	Mtb cholesterol medium	Mtb glucose medium
CN(C)c1ccc(CC(=O)N2CCOCC(O)C2)cc1 (stereo not given)	-13.69%	-26%
O=C(NCc1cn2cccnc2n1)C1CC(=O)N(Cc2cccnc2)C1 (stereo not given)	-9.347%	-46.74% & -5.056%
O=C(O)C(F)(F)F.[H][C@@]12CCN(CC3CCOCC3)[C@@]1([H])CCN2C(=O)c1cccc(F)c1	-11.58% & -22.13%	-22.54%
CC(O)CCN(C)S(=O)(=O)Cc1ccc(Br)cc1 (stereo not given)	-5.537%	-24.71% & 3.196%
COc1ncccc1-c1cc(C(=O)NC2CC2)ccn1	-4.188%	-3.678% & 10.53%
CN(C)C(=O)c1cnc2n1CCN(Cc1ccncc1)C2	-13.71% & -21.64%	-30.93%
O=C(O)C(F)(F)F.O=C(O)C(F)(F)F.c1cc(CN2Cc3nccn3CC(Cn3cncn3)C2)ccn1 (stereo not given)	6.074%	17.91%